Test: Color tone of printed matter
Conditions: ink containing the dye, printed on PB paper

First: CCCCN(CCCC)C(=O)C1=NN(c2ccc(S(=O)(=O)N(CCCC)CCCC)cc2)C(=O)C1N=Nc1ccc(S(=O)(=O)N(CCCC)CCCC)cc1 (stereo not drawn) [Oil-Soluble Dye IB]
Second: CCCCCCN(CCCCCC)S(=O)(=O)c1ccc(N=NC2C(=O)N(c3cc(Cl)c(S(=O)(=O)N(CCCCCC)CCCCCC)cc3Cl)N=C2C)cc1 (stereo not drawn) [Oil-Soluble Dye IC]
The “Color Tone L*” value of the first is lower: 84 for the first, 85 for the second.

Compared with `CCCCN(CCCC)S(=O)(=O)c1cccc(N=Nc2ccc(NC(=O)Nc3ccc(N=Nc4cccc(S(=O)(=O)N(CCCC)CCCC)c4)cc3OC)c(OC)c2)c1` [Oil-Soluble Dye ID], C.I. Acid Red 289 [Dye a] is lower in “Color Tone L*” value: 85 for the first, 59 for the second.

First: C.I. Acid Yellow 17 [Dye c]
Second: C.I. Acid Yellow 23 [Dye b]
The “Color Tone L*” value of the first is higher: 88 for the first, 86 for the second.

First: C.I. Direct Yellow 86 [Dye d]
Second: C.I. Direct Yellow 132 [Dye e]
The “Color Tone L*” value of the first is higher: 89 for the first, 87 for the second.

With C.I. Solvent Red 49 [Dye l] the “Color Tone L*” value was 50.

Going from `CCCCN(CCCC)C(=O)C1=NN(c2ccc(S(=O)(=O)N(CCCC)CCCC)cc2)C(=O)C1N=Nc1ccc(S(=O)(=O)N(CCCC)CCCC)cc1` (stereo not drawn) [Oil-Soluble Dye IB] to `CCCCCCN(CCCCCC)S(=O)(=O)c1ccc(N=NC2C(=O)N(c3cc(Cl)c(S(=O)(=O)N(CCCCCC)CCCCCC)cc3Cl)N=C2C)cc1` (stereo not drawn) [Oil-Soluble Dye IC], the “Color Tone a*” value falls from −4 to −19.

First: CCCCN(CCCC)S(=O)(=O)c1cccc(N=Nc2ccc(NC(=O)Nc3ccc(N=Nc4cccc(S(=O)(=O)N(CCCC)CCCC)c4)cc3OC)c(OC)c2)c1 [Oil-Soluble Dye ID]
Second: C.I. Acid Red 289 [Dye a]
The “Color Tone a*” value of the first is lower: −3 for the first, 69 for the second.

Compared with C.I. Acid Yellow 17 [Dye c], C.I. Acid Yellow 23 [Dye b] is higher in “Color Tone a*” value: −15 for the first, −0.4 for the second.

Going from C.I. Direct Yellow 86 [Dye d] to C.I. Direct Yellow 132 [Dye e], the “Color Tone a*” value falls from 5 to −4.

For C.I. Solvent Red 49 [Dye l], the “Color Tone a*” value was 65.

Compared with `CCCCN(CCCC)C(=O)C1=NN(c2ccc(S(=O)(=O)N(CCCC)CCCC)cc2)C(=O)C1N=Nc1ccc(S(=O)(=O)N(CCCC)CCCC)cc1` (stereo not drawn) [Oil-Soluble Dye IB], `CCCCCCN(CCCCCC)S(=O)(=O)c1ccc(N=NC2C(=O)N(c3cc(Cl)c(S(=O)(=O)N(CCCCCC)CCCCCC)cc3Cl)N=C2C)cc1` (stereo not drawn) [Oil-Soluble Dye IC] is lower in “Color Tone b*” value: 84 for the first, 70 for the second.

Compared with `CCCCN(CCCC)S(=O)(=O)c1cccc(N=Nc2ccc(NC(=O)Nc3ccc(N=Nc4cccc(S(=O)(=O)N(CCCC)CCCC)c4)cc3OC)c(OC)c2)c1` [Oil-Soluble Dye ID], C.I. Acid Red 289 [Dye a] is lower in “Color Tone b*” value: 65 for the first, −11 for the second.

Going from C.I. Acid Yellow 17 [Dye c] to C.I. Acid Yellow 23 [Dye b], the “Color Tone b*” value rises from 74 to 89.

Going from C.I. Direct Yellow 86 [Dye d] to C.I. Direct Yellow 132 [Dye e], the “Color Tone b*” value falls from 76 to 73.

In the case of C.I. Solvent Red 49 [Dye l], the “Color Tone b*” value is reported as −22.

— patent US6730780B2, “Water-based ink” (Kao Corporation, priority 2000, dated 2004)
